The text below walks through data of publication PMC10443802 (JCI Insight, 2023).

Each structure is given as a SMILES string. Where a name gives a salt, the structure may show the parent alone. *1 amine or outer side, *2 acyl side, *3 side chain or, on linkers, in order; H or OH if unused. Where a SMILES comes first, the peptide text is derived from it. [ ]: non-standard residue; d: D form. γGlu = O=C(O)[C@H](CCC(=O)[*:2])N[*:1]; Abu = CC[C@H](N)C(=O)O

The subject of this data set is OATP1B2. Briefly: Untargeted metabolomics of plasma and DRG, WT vs OATP1B2-deficient mice. It is filed as in vivo, mouse.
Setting [1] is: Figure 5B source data (volcano plot), untargeted metabolomics, WT vs OATP1B2-deficient mice, log2 fold change of metabolite level.
Setting [2] is: untargeted metabolomics, WT vs OATP1B2-deficient mice, supplement sheet "Figure 5B".
[3] abbreviates: untargeted metabolomics, sheet "Figure 5C", WT vs OATP1B2-deficient mice.
Setting [4] is: untargeted metabolomics, WT vs OATP1B2-deficient mice, supplement sheet "Figure 5B" (volcano plot).

Take `O=C([O-])c1ccc[n+]([C@@H]2O[C@H](CO)[C@@H](O)[C@H]2O)c1` [nicotinate ribonucleoside]: the Log2FoldChange under setting [1] is listed as -0.2515.

As to `CC/C=C\C/C=C\C/C=C\C/C=C\C/C=C\C/C=C\CCCCC(=O)O` [nisinate (24:6n3)], the Log2FoldChange is, setting by setting: under setting [2], 0.05658; under setting [3], 0.4647. `O=C(O)CCCCCCCCCCCCCCCCCC(=O)O` [nonadecanedioate (C19-DC)] returned a Log2FoldChange under setting [4] of 0.5261. Take `Cc1ccccc1OS(=O)(=O)O` [o-cresol sulfate]: the Log2FoldChange under setting [4] was 0.263. The compound `O=C(O)CCCCCCCCCCCCCCCCC(=O)O` [octadecanedioate (C18-DC)] displayed a Log2FoldChange under setting [4] of 0.4647. Compound `CCCCCCCC(=O)O[C@H](CC(=O)O)C[N+](C)(C)C` [octanoylcarnitine (C8)] showed a Log2FoldChange under setting [4] of 0.696 and a Log2FoldChange under setting [3] of 0.9709. The compound `CCCCCCCC/C=C\CCCCCCCC(N)=O` [oleamide] gave a Log2FoldChange under setting [4] of 0.4647. Consider `CCCCCCCC/C=C\CCCCCCCC(=O)NCCO` [oleoyl ethanolamide], for which the Log2FoldChange was -0.2515 under setting [1] and 0.09761 under setting [3]. In turn, `CCCCCCCC/C=C\CCCCCCCC(=O)OC(CC(=O)[O-])C[N+](C)(C)C` (stereo not drawn) [oleoylcarnitine (C18:1)] displayed a Log2FoldChange under setting [4] of 0.6415. As to `CCCCCCCC/C=C\CCCCCCCC(=O)OCC[N+](C)(C)C` [oleoylcholine], the Log2FoldChange under setting [2] is recorded as 0.2016 and the Log2FoldChange under setting [3] is on record as 0.848. For `CC[C@H](NC(=O)CC[C@H](N)C(=O)O)C(=O)NCC(=O)O` [ophthalmate] (γGlu-[Abu]-Gly-OH), in that order: -0.1203 and 0.2265. With `O=C(O)c1cc(=O)[nH]c(=O)[nH]1` [orotate], under setting [3], the Log2FoldChange is given as 0.05658. As to `NC(CC1C(=O)Nc2ccccc21)C(=O)O` (stereo not drawn) [oxindolylalanine], the Log2FoldChange is listed as -0.2176 under setting [1] and -0.1844 under setting [3]. In turn, `Cc1ccc(O[C@@H]2O[C@H](C(=O)O)[C@@H](O)[C@H](O)[C@H]2O)cc1` [p-cresol glucuronide*] returned a Log2FoldChange (mouse, in vivo) of 3.558. With `Cc1ccc(OS(=O)(=O)O)cc1` [p-cresol sulfate], the Log2FoldChange under setting [4] was determined as 3.216. For the compound `CCCCCCCCCCCCCCCC(N)=O` [palmitamide (16:0)], the Log2FoldChange under setting [4] was 0.4854.

Regarding `CCCCCCCCCCCCCCCC(=O)O` [palmitate (16:0)], the Log2FoldChange runs as follows: under setting [1], -0.1844; under setting [3], 0.111. `CCCCCC/C=C\CCCCCCCC(N)=O` [palmitoleamide (16:1)*]: under setting [4], the Log2FoldChange is given as 0.4005.

`CCCCCC/C=C\CCCCCCCC(=O)O` [palmitoleate (16:1n7)] registered a Log2FoldChange under setting [3] of 0.189. In turn, `CCCCCC/C=C\CCCCCCCC(=O)NCCO` [palmitoleoyl ethanolamide*] displayed a Log2FoldChange under setting [3] of -0.2345. For `CCCCCC/C=C\CCCCCCCC(=O)O[C@H](CC(=O)[O-])C[N+](C)(C)C` [palmitoleoylcarnitine (C16:1)*], the Log2FoldChange under setting [4] is given as 0.7049. For the compound `CCCCCCCCCCCCC/C=C/[C@@H](O)[C@H](COP(=O)([O-])OCC[N+](C)(C)C)NC(=O)CCCCCCCCCCCCCCC` [palmitoyl sphingomyelin (d18:1/16:0)], the Log2FoldChange by setting is: under setting [2], 0.09761; under setting [3], -0.152.

Consider `CCCCCCCCCCCCCCCC(=O)OC(CC(=O)[O-])C[N+](C)(C)C` (stereo not drawn) [palmitoylcarnitine (C16)], for which the Log2FoldChange is 0.251 under setting [4] and 0.08406 under setting [3].

As to `CCCCCCCCCCCCCCCC(=O)OCC[N+](C)(C)C` [palmitoylcholine], under setting [3], the Log2FoldChange turned out to be 1.07. Compound `CC(C)(CO)[C@@H](O)C(=O)NCCC(=O)NCCS` [pantetheine] showed a Log2FoldChange under setting [3] of 0.2388.

Consider `CCCCCCCCCCCCCCC(N)=O` [pentadecanamide (15:0)*], for which the Log2FoldChange under setting [4] is 0.3448.

Turning to `CCCCCCCCCCCCCCC(=O)O` [pentadecanoate (15:0)], the Log2FoldChange under setting [2] was determined as 0.
